Assay results as given in the supplement of paper PMC10849652.
The other results are listed elsewhere or left out.

The chains behind the UniProt entries cited, without tags or fusion partners. Where a name states a change or a piece, a line headed by the entry shows the natural chain unless it says otherwise.
UniProt Q05707: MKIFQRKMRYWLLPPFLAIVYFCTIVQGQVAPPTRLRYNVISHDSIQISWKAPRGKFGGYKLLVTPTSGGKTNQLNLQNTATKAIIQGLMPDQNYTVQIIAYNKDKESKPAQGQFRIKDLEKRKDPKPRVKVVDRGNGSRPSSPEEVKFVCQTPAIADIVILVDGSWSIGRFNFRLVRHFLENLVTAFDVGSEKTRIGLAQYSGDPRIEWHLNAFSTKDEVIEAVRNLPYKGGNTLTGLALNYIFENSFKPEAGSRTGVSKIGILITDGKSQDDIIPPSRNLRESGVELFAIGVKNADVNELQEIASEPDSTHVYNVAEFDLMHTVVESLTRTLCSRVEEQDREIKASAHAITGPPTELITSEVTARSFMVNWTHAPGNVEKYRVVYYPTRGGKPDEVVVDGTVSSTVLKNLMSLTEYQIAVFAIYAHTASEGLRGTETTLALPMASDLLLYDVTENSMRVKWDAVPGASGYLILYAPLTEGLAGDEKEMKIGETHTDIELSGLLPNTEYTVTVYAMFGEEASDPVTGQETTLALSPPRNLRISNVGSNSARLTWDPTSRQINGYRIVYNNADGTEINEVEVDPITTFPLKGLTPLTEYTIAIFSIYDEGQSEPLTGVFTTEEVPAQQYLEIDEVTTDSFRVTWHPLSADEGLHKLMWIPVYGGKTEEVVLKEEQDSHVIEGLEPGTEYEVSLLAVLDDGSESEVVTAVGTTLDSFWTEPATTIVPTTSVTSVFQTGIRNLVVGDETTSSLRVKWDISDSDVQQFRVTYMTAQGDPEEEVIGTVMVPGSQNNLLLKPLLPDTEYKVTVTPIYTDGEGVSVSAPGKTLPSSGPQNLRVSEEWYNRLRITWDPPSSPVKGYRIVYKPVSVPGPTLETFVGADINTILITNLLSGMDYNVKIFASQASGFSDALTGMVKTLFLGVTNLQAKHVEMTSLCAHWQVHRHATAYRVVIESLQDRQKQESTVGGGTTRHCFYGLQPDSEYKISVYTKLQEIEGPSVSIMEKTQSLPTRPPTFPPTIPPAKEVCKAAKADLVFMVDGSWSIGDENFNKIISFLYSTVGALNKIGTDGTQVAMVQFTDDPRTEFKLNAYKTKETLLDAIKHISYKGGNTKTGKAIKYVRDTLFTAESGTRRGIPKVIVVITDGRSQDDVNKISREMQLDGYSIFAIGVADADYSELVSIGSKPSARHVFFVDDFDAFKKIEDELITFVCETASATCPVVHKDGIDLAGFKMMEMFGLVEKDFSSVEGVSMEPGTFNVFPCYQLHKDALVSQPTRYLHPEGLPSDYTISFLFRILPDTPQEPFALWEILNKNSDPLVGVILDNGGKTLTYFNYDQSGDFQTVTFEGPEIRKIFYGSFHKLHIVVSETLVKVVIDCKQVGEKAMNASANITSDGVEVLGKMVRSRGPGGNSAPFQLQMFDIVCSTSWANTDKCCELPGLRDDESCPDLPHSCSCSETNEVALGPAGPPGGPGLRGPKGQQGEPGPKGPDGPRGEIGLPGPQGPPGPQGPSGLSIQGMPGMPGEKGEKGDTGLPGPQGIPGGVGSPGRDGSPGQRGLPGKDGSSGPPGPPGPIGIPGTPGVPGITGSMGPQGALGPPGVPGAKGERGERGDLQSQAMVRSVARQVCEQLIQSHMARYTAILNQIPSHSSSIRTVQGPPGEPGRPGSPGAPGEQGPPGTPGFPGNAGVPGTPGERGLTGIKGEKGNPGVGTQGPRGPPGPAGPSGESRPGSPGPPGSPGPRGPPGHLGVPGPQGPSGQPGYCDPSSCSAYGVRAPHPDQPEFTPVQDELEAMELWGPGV
UniProt Q96NY7: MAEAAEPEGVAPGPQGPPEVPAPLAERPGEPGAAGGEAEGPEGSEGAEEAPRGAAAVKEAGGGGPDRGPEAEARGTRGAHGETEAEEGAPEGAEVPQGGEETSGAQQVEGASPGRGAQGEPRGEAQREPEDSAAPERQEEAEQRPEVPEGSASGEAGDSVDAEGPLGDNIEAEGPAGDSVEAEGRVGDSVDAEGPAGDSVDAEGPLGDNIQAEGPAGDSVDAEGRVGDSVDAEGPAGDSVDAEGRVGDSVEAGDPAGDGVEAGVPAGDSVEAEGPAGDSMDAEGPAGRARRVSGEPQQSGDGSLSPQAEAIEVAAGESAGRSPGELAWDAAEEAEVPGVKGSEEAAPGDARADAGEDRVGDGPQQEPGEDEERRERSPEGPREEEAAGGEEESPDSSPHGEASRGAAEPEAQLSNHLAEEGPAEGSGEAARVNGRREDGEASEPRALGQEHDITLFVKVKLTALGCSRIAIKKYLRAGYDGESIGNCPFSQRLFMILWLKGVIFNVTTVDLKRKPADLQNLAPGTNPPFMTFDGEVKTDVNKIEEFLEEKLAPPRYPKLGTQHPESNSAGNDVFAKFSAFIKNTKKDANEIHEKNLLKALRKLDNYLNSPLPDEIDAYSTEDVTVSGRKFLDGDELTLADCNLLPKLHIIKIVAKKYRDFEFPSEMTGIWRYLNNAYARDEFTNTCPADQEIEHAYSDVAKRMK
UniProt P08123: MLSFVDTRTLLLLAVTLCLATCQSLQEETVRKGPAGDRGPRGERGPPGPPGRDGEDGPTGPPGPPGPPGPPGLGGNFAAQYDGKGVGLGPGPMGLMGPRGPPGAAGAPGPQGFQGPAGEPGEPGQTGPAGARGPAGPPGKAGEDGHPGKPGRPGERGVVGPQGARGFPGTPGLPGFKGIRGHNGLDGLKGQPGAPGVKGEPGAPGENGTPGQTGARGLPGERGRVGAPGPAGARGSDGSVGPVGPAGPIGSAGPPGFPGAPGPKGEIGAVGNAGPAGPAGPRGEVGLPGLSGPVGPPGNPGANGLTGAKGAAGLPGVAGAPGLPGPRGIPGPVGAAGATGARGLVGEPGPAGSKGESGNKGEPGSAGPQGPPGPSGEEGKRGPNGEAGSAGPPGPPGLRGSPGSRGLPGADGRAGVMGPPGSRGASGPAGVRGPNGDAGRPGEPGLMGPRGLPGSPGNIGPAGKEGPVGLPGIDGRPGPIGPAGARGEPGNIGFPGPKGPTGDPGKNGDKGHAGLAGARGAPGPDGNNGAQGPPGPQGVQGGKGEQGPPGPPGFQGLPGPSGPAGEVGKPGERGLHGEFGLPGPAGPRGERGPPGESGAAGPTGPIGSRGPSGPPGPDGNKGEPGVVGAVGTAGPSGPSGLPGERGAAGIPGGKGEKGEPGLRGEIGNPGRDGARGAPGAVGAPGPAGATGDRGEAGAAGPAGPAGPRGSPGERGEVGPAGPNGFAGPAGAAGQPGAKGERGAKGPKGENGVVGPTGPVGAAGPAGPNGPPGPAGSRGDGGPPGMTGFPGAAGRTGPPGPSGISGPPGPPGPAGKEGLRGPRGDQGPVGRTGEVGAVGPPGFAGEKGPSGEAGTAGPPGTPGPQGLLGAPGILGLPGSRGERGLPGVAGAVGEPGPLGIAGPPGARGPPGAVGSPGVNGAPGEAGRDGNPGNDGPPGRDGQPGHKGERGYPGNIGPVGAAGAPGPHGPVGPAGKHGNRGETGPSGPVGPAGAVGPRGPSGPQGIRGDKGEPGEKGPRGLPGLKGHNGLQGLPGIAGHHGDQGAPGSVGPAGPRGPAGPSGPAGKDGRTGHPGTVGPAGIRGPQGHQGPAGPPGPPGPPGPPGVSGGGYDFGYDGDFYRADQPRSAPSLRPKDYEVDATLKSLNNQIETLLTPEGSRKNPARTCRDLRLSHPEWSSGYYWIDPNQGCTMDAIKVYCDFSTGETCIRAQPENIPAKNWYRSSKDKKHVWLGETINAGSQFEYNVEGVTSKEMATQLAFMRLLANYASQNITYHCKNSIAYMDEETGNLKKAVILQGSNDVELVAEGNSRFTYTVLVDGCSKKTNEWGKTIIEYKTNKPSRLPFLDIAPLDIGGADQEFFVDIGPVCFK
UniProt Q9UBY8, whole entry, looked up: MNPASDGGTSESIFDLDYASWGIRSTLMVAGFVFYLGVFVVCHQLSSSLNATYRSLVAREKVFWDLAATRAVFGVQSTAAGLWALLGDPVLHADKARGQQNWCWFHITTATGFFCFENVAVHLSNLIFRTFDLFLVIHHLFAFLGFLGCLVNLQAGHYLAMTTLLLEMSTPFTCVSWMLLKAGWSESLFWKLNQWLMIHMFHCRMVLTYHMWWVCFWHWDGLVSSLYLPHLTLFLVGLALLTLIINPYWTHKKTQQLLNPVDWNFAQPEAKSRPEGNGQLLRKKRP
UniProt P38432, whole entry, looked up: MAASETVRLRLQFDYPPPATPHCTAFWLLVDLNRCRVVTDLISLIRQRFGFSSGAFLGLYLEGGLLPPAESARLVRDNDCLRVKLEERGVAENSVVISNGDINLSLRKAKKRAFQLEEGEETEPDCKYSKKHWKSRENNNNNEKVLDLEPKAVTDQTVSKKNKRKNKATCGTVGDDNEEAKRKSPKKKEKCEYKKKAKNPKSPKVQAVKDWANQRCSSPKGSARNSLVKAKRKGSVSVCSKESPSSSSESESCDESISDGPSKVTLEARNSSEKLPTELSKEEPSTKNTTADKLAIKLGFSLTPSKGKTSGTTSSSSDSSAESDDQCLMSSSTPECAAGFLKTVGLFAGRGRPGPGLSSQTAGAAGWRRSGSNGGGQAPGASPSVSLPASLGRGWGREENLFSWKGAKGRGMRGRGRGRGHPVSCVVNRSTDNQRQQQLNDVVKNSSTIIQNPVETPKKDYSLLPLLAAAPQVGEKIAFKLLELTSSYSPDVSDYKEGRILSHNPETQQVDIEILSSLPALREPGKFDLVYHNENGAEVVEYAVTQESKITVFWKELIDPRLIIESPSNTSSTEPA
UniProt Q96MX0: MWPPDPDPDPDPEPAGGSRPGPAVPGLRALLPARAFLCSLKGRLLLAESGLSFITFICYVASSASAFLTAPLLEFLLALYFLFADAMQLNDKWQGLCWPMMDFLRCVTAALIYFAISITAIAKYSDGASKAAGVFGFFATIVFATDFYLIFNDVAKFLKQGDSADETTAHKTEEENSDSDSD
UniProt P05452, whole entry, looked up: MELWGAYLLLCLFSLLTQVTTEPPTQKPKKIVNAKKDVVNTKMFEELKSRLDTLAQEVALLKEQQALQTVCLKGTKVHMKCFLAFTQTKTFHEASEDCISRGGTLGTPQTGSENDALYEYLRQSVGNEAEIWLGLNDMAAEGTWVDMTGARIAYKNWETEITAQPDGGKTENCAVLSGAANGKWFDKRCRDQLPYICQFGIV
UniProt P30622: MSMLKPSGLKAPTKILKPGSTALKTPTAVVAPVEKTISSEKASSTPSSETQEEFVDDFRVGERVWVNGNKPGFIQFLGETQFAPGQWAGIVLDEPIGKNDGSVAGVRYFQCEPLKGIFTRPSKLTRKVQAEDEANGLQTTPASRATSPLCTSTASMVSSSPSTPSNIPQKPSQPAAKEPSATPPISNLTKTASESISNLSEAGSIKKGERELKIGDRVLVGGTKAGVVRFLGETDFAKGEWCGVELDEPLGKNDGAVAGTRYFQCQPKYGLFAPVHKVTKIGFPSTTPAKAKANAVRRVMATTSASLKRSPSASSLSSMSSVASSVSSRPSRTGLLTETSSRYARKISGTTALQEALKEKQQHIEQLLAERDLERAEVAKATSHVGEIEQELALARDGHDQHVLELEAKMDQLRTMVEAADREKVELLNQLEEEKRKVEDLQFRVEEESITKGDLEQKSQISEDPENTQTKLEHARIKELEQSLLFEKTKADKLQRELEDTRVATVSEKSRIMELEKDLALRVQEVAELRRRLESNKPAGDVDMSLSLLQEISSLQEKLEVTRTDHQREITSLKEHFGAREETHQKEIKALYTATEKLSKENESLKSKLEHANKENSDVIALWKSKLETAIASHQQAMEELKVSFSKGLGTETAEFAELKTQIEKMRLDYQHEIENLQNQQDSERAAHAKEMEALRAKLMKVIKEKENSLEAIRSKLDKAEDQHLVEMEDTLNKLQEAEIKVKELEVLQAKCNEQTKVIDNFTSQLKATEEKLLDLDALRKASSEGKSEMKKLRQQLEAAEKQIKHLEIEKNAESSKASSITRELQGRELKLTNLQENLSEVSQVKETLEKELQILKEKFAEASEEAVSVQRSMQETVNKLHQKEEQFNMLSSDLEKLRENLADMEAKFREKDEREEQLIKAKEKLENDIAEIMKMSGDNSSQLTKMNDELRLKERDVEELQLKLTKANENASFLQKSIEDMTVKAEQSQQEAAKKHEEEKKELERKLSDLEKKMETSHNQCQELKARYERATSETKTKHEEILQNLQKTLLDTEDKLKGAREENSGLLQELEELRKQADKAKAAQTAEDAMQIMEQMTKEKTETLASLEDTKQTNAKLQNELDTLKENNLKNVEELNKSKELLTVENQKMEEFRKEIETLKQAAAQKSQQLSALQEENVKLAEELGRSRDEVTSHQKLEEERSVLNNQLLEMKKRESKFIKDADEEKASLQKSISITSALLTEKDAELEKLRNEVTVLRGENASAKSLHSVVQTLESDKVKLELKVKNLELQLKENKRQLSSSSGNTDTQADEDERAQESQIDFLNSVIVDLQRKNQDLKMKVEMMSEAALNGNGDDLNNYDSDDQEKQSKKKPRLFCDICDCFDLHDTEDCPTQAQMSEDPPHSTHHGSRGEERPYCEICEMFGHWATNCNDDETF

Experiments:
Assay in all cases: log2 fold change, soluble protein after heating vs DMSO (PISA); higher = thermal stabilisation; K562 cells, 10 uM, 30 min; active = over 0.2 and 3.5 SD of the protein, either way, in both replicates (recomputed)
[1] = compound: CC1=C(C=C(C=C1)NC(=O)C2=CC(=CC=C2)C(C)(C)C#N)NC3=CC4=C(C=C3)N=CN(C4=O)C
In short: (§1)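 K562 cells (2×10^6 cells/mL) were treated with 10 μM compound for 30 min, and aliquots were heated for 3 min over 48°C-58°C. Pooled aliquots were extracted in PBS with 0.5% NP-40 at 4°C, and the supernatant after 21,000xg for 90 min was measured by TMTpro 16plex LC-MS/MS with channel sums equalised. Reported thermal stability, relative to control samples and from duplicates, is a log2 fold change.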

[2] = compound: CC1=CC=C(C=C1)SC2=C3C=C(SC3=CN=C2)C(=O)N
In short: as §1

[3] = compound: CC1=NC(=CC=C1)C2=C(N=C(N2)C(C)(C)C)C3=CC4=NC=CN=C4C=C3
In short: as §1

Nexturastat A = compound: CCCCN(Cc1ccc(C(=O)NO)cc1)C(=O)Nc1ccccc1 [Nexturastat A]
In short: as §1

vemurafenib = compound: CCCS(=O)(=O)Nc1ccc(F)c(C(=O)c2c[nH]c3ncc(-c4ccc(Cl)cc4)cc23)c1F [vemurafenib]
In short: as §1

[4] = compound: CCCS(=O)(=O)Nc1ccc(F)c(C(=O)c2c[nH]c3ncc(Cl)cc23)c1F
In short: as §1

[5] = compound: CCCc1cc(C)[nH]c(=O)c1CNC(=O)c1cc(-c2ccnc(N3CCN(C)CC3)c2)cc2c1cnn2C(C)C
In short: as §1

[6] = compound: CC1=C(C=C(C=C1)NC(=O)C2=CC(=CC=C2)N(C)C)NC(=O)C3=CC=C(C=C3)O
In short: as §1

barasertib = compound: CCN(CCCOc1ccc2c(Nc3cc(CC(=O)Nc4cccc(F)c4)[nH]n3)ncnc2c1)CCOP(=O)(O)O [barasertib]
In short: as §1

givinostat = compound: CCN(CC)Cc1ccc2cc(COC(=O)Nc3ccc(C(=O)NO)cc3)ccc2c1 [givinostat]
In short: as §1

Measured: log2 fold change

COL14A1 (UniProt Q05707)
inactive: [1] -0.038 | [2] 0.019 | [3] 0.183 | Nexturastat A 0.104 | vemurafenib 0.16 | [4] -0.026 | [5] -0.079

CLIC6 (UniProt Q96NY7)
inactive: [1] 0.045 | [6] 0.028 | [3] 0.029 | Nexturastat A -0.227 | vemurafenib -0.11 | [5] -0.111 | barasertib 0.027

COL1A2 (UniProt P08123)
inactive: [1] -0.026 | [6] 0.222 | [3] 0 | Nexturastat A 0.091 | vemurafenib 0.059 | givinostat -0.073 | barasertib 0.162

CMYA5 (UniProt Q8N3K9)
inactive: [1] -0.343 | [6] -0.014 | [5] -0.005 | barasertib 0.077

CLN8 (UniProt Q9UBY8)
inactive: [1] -0.018 | [6] 0.081 | [2] -0.085 | vemurafenib -0.001 | [4] -0.109 | [5] -0.132 | givinostat -0.086 | barasertib 0.051

Pulled one by one from the list above (2):
CLN8 (UniProt Q9UBY8)
inactive: [1] -0.018 | [6] 0.081 | [2] -0.085 | vemurafenib -0.001 | [4] -0.109 | [5] -0.132 | givinostat -0.086 | barasertib 0.051

CLIC6 (UniProt Q96NY7)
inactive: [1] 0.045 | [6] 0.028 | [3] 0.029 | Nexturastat A -0.227 | vemurafenib -0.11 | [5] -0.111 | barasertib 0.027

The list goes on:

COIL (UniProt P38432)
inactive: [1] 0.132 | [6] -0.024 | [2] -0.028 | Nexturastat A 0 | [4] -0.124 | givinostat -0.057 | barasertib 0

CMTM3 (UniProt Q96MX0)
inactive: [1] 0.052 | [2] 0.117 | [3] -0.027 | Nexturastat A -0.119 | vemurafenib 0 | [4] 0.001 | [5] -0.024 | givinostat -0.016 | barasertib 0.098

CLEC3B (UniProt P05452)
inactive: [1] -0.275 | [6] 0.242 | [2] 0.255 | Nexturastat A 0.071 | vemurafenib 0.202 | [4] -0.027 | [5] -0.396 | givinostat -0.139 | barasertib -0.115

CIAO2B (UniProt Q9Y3D0)
inactive: [1] -0.099 | [2] -0.044 | [3] -0.149 | [4] -0.054 | [5] 0.307 | givinostat 0.001 | barasertib 0.102

CLIP1 isoform 2 (UniProt P30622)
inactive: [1] -0.024 | [6] 0.081 | [2] 0.01 | Nexturastat A -0.008 | vemurafenib -0.032 | [4] -0.018 | [5] -0.036 | givinostat 0.014 | barasertib 0.054
